Laboratory results published in patent publication US20250032566A1 (YEDA RESEARCH AND DEVELOPMENT, published 2025).
No constants are given. Whether binding was seen depends on the method and setting. In cells and extracts the contact can be indirect. Some results given as binding are weak or reduced against the parent protein; the word gives no strength. Tags and fused reporters may be left off the sequences shown.

Target: T1, DSR2(H171A), SIR2 active-site mutant of DSR2 from Bacillus subtilis 29R (Bacillus subtilis 29R) (UniProt P0DXN8)
T1 sequence: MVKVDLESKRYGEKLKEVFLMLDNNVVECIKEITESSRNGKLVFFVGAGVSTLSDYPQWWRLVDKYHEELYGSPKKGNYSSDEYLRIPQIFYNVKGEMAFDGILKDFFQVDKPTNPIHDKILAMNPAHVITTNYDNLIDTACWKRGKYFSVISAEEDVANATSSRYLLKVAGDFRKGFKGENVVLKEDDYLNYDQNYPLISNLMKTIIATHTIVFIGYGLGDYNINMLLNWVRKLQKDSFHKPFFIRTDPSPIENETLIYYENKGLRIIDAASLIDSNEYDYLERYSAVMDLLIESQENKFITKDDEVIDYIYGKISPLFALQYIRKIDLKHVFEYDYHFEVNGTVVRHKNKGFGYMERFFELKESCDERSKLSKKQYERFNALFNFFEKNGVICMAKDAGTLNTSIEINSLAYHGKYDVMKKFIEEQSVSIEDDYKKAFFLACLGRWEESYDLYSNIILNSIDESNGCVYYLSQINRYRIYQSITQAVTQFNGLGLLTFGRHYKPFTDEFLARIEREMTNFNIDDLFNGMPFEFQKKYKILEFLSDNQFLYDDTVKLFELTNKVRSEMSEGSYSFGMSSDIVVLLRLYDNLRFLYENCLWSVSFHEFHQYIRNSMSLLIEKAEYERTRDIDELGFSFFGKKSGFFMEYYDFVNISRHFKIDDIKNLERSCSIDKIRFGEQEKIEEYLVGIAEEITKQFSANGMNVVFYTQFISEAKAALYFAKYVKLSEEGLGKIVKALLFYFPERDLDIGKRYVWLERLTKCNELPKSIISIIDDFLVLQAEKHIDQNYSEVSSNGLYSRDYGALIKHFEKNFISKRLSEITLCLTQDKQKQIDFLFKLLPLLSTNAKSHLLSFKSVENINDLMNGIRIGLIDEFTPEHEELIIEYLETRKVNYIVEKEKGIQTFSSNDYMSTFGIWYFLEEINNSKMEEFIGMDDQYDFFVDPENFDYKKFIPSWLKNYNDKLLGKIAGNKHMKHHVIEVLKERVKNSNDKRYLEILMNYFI
Assay: Strep-tag pulldown (MagStrep XT beads) from E. coli co-expressing DSR2(H171A) and DSAD1 with C-terminal tag; SDS-PAGE, Coomassie

B1: DSAD1 (DSR Anti Defense 1) with C-terminal twin streptavidin tag (protein)
chain: MIEIFKDTGATHDLVYHSKINTFVWDVEFDIVLSDSKELNKCYFVKCFNPYRINGKCDFAVSSIDIFSEGKRLLIENEFNFKITKAVHVATSKDVTEIVLHLSERISSPFPIVKEVVYLD
- binding: binds
